Results from article PMC11224269.
No constants are given. Whether binding was seen depends on the method and setting. For some assays here: Binding calls can cover weak binding; strength is not graded here.

Legend:
[1] = biological target: T1, biotinylated H3 peptide, H3 (44-59) (human); assay: pull-down; in vitro binding assay: biotinylated pY54-H3 or H3 peptide incubated with varying concentration of His-tagged SD peptide, pull-down with streptavidin beads, immunoblot for the His tag; both purified
T1 sequence (peptide, biotinylated at C-terminus): VALREIRRYQKSTE

[2] = biological target: biotinylated pY54-H3 peptide, pY54-H3 (44-59) (human); assay: as above

binding [1]: no binding | binding [2]: binds
Substance: His-tagged SANT domain (52 aa long, SD peptide) (domain or fragment)
